Data as given in US9944677B2, “Selective inhibitor of angiotensin II” (GEORGETOWN UNIVERSITY, priority 2013, dated 2018).
Part of at least one peptide drawing is inferred or uncertain, most often the ends. Ends that are not written are not given here.

Tests used:
AT1aR = biological target: T1, AT1aR (Rattus norvegicus, UniProt P25095); experiment: Ang II induction of phosphoErk1/2 in HEK293 cells transfected with full length AT1aR; assay type: cell-based; settings: pre-incubation with 500 nM peptide, 100 nM Ang II, 48 hours after transfection
T1 construct: HEK293 cells were transfected with the full length AT1aR; expressed in transfected cells; host or cells: HEK293
T1 sequence (P25095 1-359): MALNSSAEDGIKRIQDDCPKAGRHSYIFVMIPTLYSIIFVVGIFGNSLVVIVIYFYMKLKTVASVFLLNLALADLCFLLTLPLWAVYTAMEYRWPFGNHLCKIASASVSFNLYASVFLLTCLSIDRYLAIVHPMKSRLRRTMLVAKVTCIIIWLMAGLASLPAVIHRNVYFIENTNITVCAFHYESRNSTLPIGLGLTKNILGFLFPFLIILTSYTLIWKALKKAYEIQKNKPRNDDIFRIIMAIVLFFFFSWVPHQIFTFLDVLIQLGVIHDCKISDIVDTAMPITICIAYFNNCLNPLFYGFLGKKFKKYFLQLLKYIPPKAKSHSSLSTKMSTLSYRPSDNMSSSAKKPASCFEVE

[1] = tested on: New Zealand white rabbits; experiment: Blood pressure after i.c.v. injection in rabbits instrumented with radiotransmitters; assay type: in vivo; settings: rabbit
rats [2] = experiment: i.c.v. Ang II-induced saline ingestion and water intake; assay type: in vivo, rat; settings: 1 nM PEP7
rats [3] = experiment: Dehydration-induced water intake; assay type: in vivo, rat; settings: i.c.v. PEP7
[4] = 100 ng i.c.v., max effect minus baseline
[5] = baseline value of the 100 ng i.c.v. group

Substance: MAGILSG [PEP7, MAGILSG (SEQ ID NO: 1)]
- Ang II induction of pErk1/2 expression (AT1aR): markedly attenuated
- DBP Max Effect ([1]; 100 ng i.c.v.): 62 mm Hg
- Effect on basal systolic and diastolic blood pressure ([1]; 100 ng i.c.v.): significantly attenuated
- MAP Max Effect ([1]; 100 ng i.c.v.): 69 mm Hg
- SBP Max Effect ([1]; 100 ng i.c.v.): 85 mm Hg
- DBP Change [1, 4]: −8 mm Hg
- MAP Change [1, 4]: −10 mm Hg
- SBP Change [1, 4]: −9 mm Hg
- DBP Baseline [1, 5]: 70 mm Hg
- MAP Baseline [1, 5]: 79 mm Hg
- SBP Baseline [1, 5]: 94 mm Hg
- i.c.v. Ang II-induced saline ingestion (rats [2]): markedly decreased
- i.c.v. Ang II-induced water intake (rats [2]): without affecting
- Dehydration-induced water intake (rats [3]): failed to inhibit
